The text below walks through data of article doi:10.1101/609503.

Amino acid sequences for entries named in this document (tags omitted). A change or cut given only in a name is not applied to a line headed by its entry. Residues count along the entry.
UniProt P0AFS9: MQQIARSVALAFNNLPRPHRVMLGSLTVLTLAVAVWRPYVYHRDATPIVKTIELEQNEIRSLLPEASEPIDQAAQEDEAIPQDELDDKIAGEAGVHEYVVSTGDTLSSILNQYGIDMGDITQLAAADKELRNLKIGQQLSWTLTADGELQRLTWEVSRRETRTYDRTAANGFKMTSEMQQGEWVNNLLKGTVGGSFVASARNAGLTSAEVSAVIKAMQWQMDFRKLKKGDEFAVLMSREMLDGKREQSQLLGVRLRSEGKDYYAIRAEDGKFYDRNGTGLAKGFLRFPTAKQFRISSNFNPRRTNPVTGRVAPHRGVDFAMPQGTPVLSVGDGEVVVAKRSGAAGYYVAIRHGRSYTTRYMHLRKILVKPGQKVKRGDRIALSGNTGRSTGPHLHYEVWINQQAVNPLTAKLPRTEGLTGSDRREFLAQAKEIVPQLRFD
UniProt P24228, residues 21-477: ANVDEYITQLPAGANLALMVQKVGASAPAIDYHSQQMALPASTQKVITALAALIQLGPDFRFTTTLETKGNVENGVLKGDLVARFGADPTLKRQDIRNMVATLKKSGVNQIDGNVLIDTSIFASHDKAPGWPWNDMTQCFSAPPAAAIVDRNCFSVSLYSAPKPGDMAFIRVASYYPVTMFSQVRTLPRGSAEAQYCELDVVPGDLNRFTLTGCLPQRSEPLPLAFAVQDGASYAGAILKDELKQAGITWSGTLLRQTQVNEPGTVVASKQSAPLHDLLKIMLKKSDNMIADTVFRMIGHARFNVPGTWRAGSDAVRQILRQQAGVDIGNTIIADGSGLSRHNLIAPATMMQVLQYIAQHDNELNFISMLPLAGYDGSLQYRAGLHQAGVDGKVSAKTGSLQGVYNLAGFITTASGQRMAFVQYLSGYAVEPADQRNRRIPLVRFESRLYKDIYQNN

Results are given in words; binding and its absence hold for the method and conditions named. For part of these data: Binding calls can cover weak binding; strength is not graded here.

The target in one assay is MepM (E. coli) (UniProt P0AFS9). Description: MST.
The target in assay [1] is T1, NlpI (soluble version, residues 19-294) (E. coli) (UniProt P0AFB1).
T1 sequence (chain, NT647 RED-NHS dye on amines where used as the labelled partner (fl-NlpI)): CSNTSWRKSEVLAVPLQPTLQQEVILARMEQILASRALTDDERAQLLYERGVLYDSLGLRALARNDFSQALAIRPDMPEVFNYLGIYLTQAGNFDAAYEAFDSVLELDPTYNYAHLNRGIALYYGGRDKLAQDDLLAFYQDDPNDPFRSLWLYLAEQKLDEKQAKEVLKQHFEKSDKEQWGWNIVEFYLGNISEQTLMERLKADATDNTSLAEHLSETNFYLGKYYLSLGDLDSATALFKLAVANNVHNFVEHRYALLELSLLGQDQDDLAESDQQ
Description: pull-down.

For another assay, the target named is T2, PBP7 (E. coli) (UniProt P0AFI5).
T2 sequence (chain, NT647 RED-NHS dye on amines where used as the labelled partner (fl-PBP7)): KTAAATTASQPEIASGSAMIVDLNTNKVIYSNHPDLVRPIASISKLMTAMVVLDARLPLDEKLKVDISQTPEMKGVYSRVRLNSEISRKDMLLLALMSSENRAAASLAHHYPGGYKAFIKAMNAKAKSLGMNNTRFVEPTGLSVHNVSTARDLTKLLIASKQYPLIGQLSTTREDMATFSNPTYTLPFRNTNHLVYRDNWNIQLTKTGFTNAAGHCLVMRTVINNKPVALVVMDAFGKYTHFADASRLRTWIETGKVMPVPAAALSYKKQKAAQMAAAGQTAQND
Description: MST + pull-down.

Regarding “PBP4 (native) (from UniProt P24228 21-477) (enzyme)”, the binding entry in the assay with MepM (E. coli) is “no binding (tested: 50 μM)”.

On to MepM (from UniProt P0AFS9) (enzyme), for which the binding result in assay [1] is listed as “binds”; with PBP7 (E. coli), “no binding”.
